Assay results published in patent US9795675B2, “Light-activatable polymeric nanoparticles” (CNC—CENTRO DE NEUROCIÊNCIAS E BIOLOGIA CELULAR, priority 2013, dated 2017).
At least one structure is not confirmed: it was looked up by name or label, or the drawing left a doubt.

System: K562 cells
Experiment: K562 differentiation assay (erythroid, benzidine staining)
Format: cell-based, human

SMILES: CC1=C(/C=C/C(C)=C/C=C/C(C)=C/C(=O)O)C(C)(C)CCC1 [RA, retinoic acid]
- efficiency of differentiation of K562 cells into the erythroid lineage: relatively low
